Assay results as given in PMC10987620.
These are yes or no findings as the source states them, for the method shown. Binding seen in cells or lysates may run through a third protein. Some entries that bind do so weakly or less than the wild type. Tags and fused reporters may be left off the sequences shown.

Chains of the proteins cited; added tags and fusions are not shown.
UniProt O00425: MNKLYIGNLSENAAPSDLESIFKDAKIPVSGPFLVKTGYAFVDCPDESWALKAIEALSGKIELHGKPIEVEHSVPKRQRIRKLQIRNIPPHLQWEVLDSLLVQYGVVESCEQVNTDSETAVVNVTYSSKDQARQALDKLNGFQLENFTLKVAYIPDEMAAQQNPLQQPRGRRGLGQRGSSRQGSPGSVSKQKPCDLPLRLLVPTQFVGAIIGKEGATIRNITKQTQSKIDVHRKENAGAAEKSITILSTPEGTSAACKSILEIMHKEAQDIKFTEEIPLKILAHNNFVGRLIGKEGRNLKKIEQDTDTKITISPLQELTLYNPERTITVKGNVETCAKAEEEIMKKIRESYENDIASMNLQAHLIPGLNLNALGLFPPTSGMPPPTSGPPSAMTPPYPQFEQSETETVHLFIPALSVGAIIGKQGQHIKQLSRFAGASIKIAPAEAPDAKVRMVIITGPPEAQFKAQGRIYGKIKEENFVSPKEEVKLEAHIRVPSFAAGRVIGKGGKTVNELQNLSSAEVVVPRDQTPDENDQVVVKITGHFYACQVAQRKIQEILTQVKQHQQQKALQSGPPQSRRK

Target: FLAG-labeled full-length IGF2BP3 (UniProt O00425)
Test: co-IP; HA-MKRN2 and FLAG-IGF2BP3; immunoprecipitation after overexpression or knockdown of the lncRNA PCAT5; RIPA lysis with protease and ribonuclease inhibitor; Protein A/G magnetic beads overnight at 4 °C; washes with NT2 buffer

binding: binds
B1: HA-labeled full-length MKRN2 (protein, UniProt Q9H000 1-416)
chain: MSTKQITCRYFMHGVCREGSQCLFSHDLANSKPSTICKYYQKGYCAYGTRCRYDHTRPSAAAGGAVGTMAHSVPSPAFHSPHPPSEVTASIVKTNSHEPGKREKRTLVLRDRNLSGMAERKTQPSMVSNPGSCSDPQPSPEMKPHSYLDAIRSGLDDVEASSSYSNEQQLCPYAAAGECRFGDACVYLHGEVCEICRLQVLHPFDPEQRKAHEKICMLTFEHEMEKAFAFQASQDKVCSICMEVILEKASASERRFGILSNCNHTYCLSCIRQWRCAKQFENPIIKSCPECRVISEFVIPSVYWVEDQNKKNELIEAFKQGMGKKACKYFEQGKGTCPFGSKCLYRHAYPDGRLAEPEKPRKQLSSQGTVRFFNSVRLWDFIENRESRHVPNNEDVDMTELGDLFMHLSGVESSEP
